Laboratory results: the supplement of paper PMC10849652
The other results are listed elsewhere or left out.

Amino acid sequences for entries named in this document (tags omitted). A change or cut given only in a name is not applied to a line headed by its entry.
UniProt P32189: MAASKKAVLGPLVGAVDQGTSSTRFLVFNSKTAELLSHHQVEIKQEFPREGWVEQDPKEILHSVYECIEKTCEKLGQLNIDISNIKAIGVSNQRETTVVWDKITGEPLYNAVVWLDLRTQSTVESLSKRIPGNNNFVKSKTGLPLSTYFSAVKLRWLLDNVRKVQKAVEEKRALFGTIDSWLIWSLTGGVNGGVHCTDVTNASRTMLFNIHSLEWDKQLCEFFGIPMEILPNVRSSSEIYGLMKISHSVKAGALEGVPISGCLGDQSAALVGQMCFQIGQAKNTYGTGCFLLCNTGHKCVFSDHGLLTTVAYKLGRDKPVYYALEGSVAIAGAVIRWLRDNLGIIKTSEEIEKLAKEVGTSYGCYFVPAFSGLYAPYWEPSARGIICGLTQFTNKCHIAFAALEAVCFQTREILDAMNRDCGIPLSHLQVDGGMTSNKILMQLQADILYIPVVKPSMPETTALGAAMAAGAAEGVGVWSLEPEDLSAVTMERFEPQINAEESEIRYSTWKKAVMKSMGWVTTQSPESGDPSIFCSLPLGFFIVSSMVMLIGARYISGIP
UniProt Q4V328: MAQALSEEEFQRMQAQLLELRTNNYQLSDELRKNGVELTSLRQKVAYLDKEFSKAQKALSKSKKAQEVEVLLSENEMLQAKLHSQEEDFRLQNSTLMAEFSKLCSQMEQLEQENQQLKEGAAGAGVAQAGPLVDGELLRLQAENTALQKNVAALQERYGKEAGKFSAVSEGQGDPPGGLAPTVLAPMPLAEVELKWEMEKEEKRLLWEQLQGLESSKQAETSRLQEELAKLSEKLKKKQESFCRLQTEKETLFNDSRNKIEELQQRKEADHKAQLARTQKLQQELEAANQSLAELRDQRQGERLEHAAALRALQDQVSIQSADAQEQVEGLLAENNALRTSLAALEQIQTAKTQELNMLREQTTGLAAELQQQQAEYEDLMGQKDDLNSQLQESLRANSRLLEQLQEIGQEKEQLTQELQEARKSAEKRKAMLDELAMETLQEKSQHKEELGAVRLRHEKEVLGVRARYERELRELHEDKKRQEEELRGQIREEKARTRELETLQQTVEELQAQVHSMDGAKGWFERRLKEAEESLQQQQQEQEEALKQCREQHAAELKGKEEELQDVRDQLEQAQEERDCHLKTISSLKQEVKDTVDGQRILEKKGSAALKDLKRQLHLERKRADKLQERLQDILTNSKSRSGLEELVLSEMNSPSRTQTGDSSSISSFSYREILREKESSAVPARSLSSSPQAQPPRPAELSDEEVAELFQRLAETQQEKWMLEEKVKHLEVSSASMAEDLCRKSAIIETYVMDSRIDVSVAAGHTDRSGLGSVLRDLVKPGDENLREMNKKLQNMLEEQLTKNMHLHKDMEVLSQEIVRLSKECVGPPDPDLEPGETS
UniProt Q96IJ6: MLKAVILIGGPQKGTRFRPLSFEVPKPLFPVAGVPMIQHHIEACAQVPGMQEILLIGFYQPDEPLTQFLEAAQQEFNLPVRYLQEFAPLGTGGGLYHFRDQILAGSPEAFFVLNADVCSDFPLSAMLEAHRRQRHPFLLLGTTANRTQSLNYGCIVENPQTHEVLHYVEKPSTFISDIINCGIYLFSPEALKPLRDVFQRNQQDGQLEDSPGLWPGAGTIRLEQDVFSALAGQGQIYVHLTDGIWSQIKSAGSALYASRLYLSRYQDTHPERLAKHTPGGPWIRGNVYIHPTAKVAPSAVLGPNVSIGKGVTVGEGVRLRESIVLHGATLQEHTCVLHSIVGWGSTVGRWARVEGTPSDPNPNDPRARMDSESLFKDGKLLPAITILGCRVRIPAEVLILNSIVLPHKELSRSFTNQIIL
UniProt P50148, whole entry, looked up: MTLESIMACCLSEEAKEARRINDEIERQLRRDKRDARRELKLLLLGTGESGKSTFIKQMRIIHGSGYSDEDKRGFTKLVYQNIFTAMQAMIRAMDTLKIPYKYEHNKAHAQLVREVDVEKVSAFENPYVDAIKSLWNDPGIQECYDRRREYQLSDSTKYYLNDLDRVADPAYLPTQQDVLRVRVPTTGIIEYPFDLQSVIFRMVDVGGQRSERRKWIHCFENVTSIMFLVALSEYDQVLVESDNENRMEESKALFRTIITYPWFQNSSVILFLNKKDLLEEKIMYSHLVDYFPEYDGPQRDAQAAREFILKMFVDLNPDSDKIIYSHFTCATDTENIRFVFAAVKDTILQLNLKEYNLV
UniProt O95249: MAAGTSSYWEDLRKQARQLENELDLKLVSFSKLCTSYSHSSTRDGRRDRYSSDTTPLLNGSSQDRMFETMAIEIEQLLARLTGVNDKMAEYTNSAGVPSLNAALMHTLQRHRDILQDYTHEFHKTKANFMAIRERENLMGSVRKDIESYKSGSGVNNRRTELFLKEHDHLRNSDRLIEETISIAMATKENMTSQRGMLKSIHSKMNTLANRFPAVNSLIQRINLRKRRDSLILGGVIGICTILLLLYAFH
UniProt Q7Z2K8: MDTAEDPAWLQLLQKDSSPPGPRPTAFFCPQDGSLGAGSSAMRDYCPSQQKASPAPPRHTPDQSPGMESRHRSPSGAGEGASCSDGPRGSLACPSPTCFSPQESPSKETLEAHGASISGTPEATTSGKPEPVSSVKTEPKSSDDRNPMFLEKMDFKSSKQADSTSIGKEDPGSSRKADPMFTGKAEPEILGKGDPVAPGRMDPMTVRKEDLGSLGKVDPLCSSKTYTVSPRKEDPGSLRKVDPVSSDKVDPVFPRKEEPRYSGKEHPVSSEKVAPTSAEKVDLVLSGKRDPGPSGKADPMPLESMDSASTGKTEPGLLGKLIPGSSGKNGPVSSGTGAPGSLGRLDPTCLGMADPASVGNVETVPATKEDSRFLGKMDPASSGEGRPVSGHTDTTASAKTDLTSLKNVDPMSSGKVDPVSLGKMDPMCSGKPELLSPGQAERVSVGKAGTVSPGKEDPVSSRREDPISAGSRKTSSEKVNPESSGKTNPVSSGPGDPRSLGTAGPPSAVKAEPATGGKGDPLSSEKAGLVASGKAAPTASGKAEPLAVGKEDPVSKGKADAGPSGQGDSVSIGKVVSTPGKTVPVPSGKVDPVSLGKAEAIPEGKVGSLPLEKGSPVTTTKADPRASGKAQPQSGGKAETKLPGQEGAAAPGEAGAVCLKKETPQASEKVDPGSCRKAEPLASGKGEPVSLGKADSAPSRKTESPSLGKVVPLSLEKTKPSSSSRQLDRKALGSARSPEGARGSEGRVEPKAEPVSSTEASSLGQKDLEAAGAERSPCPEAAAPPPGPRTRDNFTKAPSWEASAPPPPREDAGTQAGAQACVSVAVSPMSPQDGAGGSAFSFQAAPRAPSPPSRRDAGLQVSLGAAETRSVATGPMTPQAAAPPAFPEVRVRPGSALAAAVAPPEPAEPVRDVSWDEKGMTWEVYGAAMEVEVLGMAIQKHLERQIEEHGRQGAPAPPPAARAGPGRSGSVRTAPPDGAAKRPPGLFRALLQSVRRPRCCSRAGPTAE
UniProt Q92990: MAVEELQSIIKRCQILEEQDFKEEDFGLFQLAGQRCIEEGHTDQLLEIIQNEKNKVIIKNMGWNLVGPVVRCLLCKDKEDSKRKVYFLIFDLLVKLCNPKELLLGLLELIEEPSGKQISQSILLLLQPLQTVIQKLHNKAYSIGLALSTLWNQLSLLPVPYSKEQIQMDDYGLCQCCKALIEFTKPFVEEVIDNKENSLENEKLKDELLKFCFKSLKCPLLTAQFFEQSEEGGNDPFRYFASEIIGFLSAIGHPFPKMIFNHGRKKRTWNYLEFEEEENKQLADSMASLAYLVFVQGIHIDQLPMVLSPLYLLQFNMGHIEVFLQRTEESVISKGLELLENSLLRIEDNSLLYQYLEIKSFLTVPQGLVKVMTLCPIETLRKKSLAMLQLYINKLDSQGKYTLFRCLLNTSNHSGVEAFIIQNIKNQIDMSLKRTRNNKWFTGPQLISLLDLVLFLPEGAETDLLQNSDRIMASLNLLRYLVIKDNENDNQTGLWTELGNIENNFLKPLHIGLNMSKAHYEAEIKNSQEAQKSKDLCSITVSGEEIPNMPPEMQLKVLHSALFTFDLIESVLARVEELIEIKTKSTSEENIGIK
UniProt P43304: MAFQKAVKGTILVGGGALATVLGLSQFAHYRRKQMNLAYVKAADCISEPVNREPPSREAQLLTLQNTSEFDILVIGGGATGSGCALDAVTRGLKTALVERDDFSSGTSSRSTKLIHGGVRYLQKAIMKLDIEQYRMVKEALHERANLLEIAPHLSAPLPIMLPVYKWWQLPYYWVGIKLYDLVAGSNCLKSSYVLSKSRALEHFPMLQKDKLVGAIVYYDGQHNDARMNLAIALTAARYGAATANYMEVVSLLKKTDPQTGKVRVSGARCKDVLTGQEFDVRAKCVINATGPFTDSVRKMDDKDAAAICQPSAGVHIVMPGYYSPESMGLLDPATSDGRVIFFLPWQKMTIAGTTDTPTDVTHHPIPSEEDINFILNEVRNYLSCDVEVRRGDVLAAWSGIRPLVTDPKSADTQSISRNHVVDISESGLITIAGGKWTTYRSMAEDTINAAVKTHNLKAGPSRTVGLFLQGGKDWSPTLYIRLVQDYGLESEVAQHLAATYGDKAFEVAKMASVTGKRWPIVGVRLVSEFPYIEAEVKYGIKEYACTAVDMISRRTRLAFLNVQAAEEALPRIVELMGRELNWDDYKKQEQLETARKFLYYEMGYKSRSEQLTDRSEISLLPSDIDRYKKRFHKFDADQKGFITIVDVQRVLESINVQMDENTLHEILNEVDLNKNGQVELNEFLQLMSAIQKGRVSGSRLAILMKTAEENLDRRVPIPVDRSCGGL
UniProt Q9P2T1: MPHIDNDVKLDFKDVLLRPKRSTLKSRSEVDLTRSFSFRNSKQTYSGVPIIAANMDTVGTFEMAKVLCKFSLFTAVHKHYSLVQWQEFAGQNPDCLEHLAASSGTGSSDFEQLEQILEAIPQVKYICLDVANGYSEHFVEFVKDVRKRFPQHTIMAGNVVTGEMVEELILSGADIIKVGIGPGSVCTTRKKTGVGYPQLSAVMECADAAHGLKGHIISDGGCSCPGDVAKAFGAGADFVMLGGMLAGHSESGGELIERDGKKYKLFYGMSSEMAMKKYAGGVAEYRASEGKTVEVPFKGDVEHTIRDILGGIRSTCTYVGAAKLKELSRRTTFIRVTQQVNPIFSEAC
UniProt Q13098: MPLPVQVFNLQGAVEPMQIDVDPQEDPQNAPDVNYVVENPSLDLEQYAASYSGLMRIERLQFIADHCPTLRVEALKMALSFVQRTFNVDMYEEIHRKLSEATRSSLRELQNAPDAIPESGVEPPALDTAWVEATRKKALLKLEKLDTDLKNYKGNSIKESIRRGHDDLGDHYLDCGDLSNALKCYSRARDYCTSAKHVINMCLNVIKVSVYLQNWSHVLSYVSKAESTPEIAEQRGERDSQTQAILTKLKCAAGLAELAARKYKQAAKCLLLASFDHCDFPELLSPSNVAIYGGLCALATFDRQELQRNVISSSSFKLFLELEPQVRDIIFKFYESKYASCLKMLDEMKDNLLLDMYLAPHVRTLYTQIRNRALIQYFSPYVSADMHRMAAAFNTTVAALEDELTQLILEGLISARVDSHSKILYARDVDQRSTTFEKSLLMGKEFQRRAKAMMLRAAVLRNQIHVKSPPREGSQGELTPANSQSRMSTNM
UniProt Q9UHW5, whole entry, looked up: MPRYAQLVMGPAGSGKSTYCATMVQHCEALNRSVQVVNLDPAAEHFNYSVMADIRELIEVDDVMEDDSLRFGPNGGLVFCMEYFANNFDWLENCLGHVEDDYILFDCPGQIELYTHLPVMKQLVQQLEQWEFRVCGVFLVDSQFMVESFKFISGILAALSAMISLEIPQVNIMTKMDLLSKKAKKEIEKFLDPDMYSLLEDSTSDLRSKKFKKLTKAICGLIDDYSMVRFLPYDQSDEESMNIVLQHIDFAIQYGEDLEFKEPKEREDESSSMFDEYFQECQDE
UniProt P49915: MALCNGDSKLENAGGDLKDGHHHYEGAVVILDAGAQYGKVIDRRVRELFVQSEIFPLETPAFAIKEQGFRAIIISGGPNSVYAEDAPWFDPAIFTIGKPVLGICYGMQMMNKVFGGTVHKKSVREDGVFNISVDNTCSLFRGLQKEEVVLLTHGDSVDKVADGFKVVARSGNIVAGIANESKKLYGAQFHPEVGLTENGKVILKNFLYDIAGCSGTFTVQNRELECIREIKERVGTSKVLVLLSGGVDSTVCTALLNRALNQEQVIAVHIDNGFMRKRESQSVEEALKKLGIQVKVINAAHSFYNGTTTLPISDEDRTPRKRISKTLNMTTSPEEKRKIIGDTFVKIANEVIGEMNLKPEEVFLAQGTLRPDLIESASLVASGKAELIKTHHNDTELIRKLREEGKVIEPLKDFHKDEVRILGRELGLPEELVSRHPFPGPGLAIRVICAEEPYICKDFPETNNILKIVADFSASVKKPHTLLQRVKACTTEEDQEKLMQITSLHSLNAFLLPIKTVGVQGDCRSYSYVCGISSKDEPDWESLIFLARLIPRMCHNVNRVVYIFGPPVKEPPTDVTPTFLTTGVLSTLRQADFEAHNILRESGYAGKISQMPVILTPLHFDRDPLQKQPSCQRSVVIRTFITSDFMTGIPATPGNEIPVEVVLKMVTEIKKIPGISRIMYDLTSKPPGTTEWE

Key:
Test in all cases: log2 fold change, soluble protein after heating vs DMSO (PISA); higher = thermal stabilisation; K562 cells, 10 uM, 30 min; active = over 0.2 and 3.5 SD of the protein, either way, in both replicates (recomputed)
saracatinib = compound: CN1CCN(CCOc2cc(OC3CCOCC3)c3c(Nc4c(Cl)ccc5c4OCO5)ncnc3c2)CC1 [saracatinib]
Method in brief: (§1)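 Aliquots of K562 cells (2×10^6 cells/mL) treated with 10 μM compound for 30 min were heated for 3 min over 48°C-58°C. After pooling and extraction in PBS with 0.5% NP-40 at 4°C, soluble protein from a 21,000xg, 90 min spin was quantified by TMTpro 16plex LC-MS/MS with channel sums equalised. Thermal stability is expressed against control samples, from duplicates, as a log2 fold change.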

sotrastaurin = compound: CN1CCN(c2nc(C3=C(c4c[nH]c5ccccc45)C(=O)NC3=O)c3ccccc3n2)CC1 [sotrastaurin]
Method in brief: as §1

alvocidib = compound: CN1CC[C@H](c2c(O)cc(O)c3c(=O)cc(-c4ccccc4Cl)oc23)[C@H](O)C1 [alvocidib]
Method in brief: as §1

Tubastatin A = compound: CN1CCc2c(c3ccccc3n2Cc2ccc(C(=O)NO)cc2)C1 [Tubastatin A]
Method in brief: as §1

[1] = compound: CNC(=O)C1=CC=CC=C1NC2=NC(=NC=C2Cl)NC3=C(C=C(C=C3)N4CCOCC4)OC
Method in brief: as §1

defactinib = compound: CNC(=O)c1ccc(Nc2ncc(C(F)(F)F)c(NCc3nccnc3N(C)S(C)(=O)=O)n2)cc1 [defactinib]
Method in brief: as §1

rucaparib = compound: CNCc1ccc(-c2[nH]c3cc(F)cc4c3c2CCNC4=O)cc1 [rucaparib]
Method in brief: as §1

[2] = compound: CNc1nc(-c2ccc3c(N)n[nH]c3c2)cc(N2C[C@@H](C(=O)NC3CCCCC3)CC[C@H]2C)n1
Method in brief: as §1

encorafenib = compound: COC(=O)N[C@@H](C)CNc1nccc(-c2cn(C(C)C)nc2-c2cc(Cl)cc(NS(C)(=O)=O)c2F)n1 [encorafenib]
Method in brief: as §1

[3] = compound: COC(=O)[C@H](CCSC)NC(=O)C1=C(C=C(C=C1)NC[C@H](CS)N)C2=CC=CC=C2
Method in brief: as §1

[4] = compound: COC1=CC=C(C=C1)CN2C=CC3=C2C=C(C=C3)C(=O)NO
Method in brief: as §1

filanesib = compound: CON(C)C(=O)N1N=C(c2cc(F)ccc2F)S[C@@]1(CCCN)c1ccccc1 [filanesib]
Method in brief: as §1

zotarolimus = compound: CO[C@H]1C[C@@H]2CC[C@@H](C)[C@@](O)(O2)C(=O)C(=O)N2CCCC[C@H]2C(=O)O[C@H]([C@H](C)C[C@@H]2CC[C@H](n3cnnn3)[C@H](OC)C2)CC(=O)[C@H](C)/C=C(\C)[C@@H](O)[C@@H](OC)C(=O)[C@H](C)C[C@H](C)/C=C/C=C/C=C/1C [zotarolimus]
Method in brief: as §1

idasanutlin = compound: COc1cc(C(=O)O)ccc1NC(=O)[C@@H]1N[C@@H](CC(C)(C)C)[C@](C#N)(c2ccc(Cl)cc2F)[C@H]1c1cccc(Cl)c1F [idasanutlin]
Method in brief: as §1

alisertib = compound: COc1cc(Nc2ncc3c(n2)-c2ccc(Cl)cc2C(c2c(F)cccc2OC)=NC3)ccc1C(=O)O [alisertib]
Method in brief: as §1

[5] = compound: COc1cc2nc(-c3cc(F)ccc3O)nc(N[C@@H]3CNC[C@H]3C(C)(C)O)c2cc1OC
Method in brief: as §1

gefitinib = compound: COc1cc2ncnc(Nc3ccc(F)c(Cl)c3)c2cc1OCCCN1CCOCC1 [gefitinib]
Method in brief: as §1

[6] = compound: COc1cccc2cc(-c3nc([C@H]4CC[C@H](C(=O)O)CC4)n4ncnc(N)c34)[nH]c12
Method in brief: as §1

lapatinib = compound: CS(=O)(=O)CCNCc1ccc(-c2ccc3ncnc(Nc4ccc(OCc5cccc(F)c5)c(Cl)c4)c3c2)o1 [lapatinib]
Method in brief: as §1

pictilisib = compound: CS(=O)(=O)N1CCN(Cc2cc3nc(-c4cccc5[nH]ncc45)nc(N4CCOCC4)c3s2)CC1 [pictilisib]
Method in brief: as §1

Measured: log2 fold change

GK (UniProt P32189)
inactive: saracatinib 0.067 | sotrastaurin 0.049 | alvocidib 0.018 | Tubastatin A -0.007 | [1] -0.012 | defactinib -0.003 | rucaparib -0.03 | [2] -0.025 | encorafenib -0.012 | [3] 0.014 | [4] 0 | filanesib -0.036 | zotarolimus -0.034 | idasanutlin -0.018 | alisertib -0.018 | [5] 0.028 | gefitinib 0.01 | [6] 0.077 | lapatinib -0.01 | pictilisib 0.009

GRIPAP1 (UniProt Q4V328)
inactive: saracatinib 0.125 | sotrastaurin -0.143 | alvocidib -0.015 | Tubastatin A -0.027 | [1] 0.114 | defactinib -0.013 | rucaparib 0.008 | [2] -0.018 | encorafenib 0.057 | [3] 0.029 | [4] 0.063 | filanesib 0.016 | zotarolimus 0.027 | idasanutlin 0.035 | alisertib -0.053 | [5] -0.066 | gefitinib 0.065 | [6] -0.047 | lapatinib 0.086 | pictilisib 0.019

GINS1 (UniProt Q14691)
inactive: saracatinib 0.046 | sotrastaurin 0.063 | alvocidib -0.047 | Tubastatin A -0.02 | [1] -0.044 | defactinib -0.057 | rucaparib 0.013 | [2] 0.038 | encorafenib 0.019 | [3] -0.021 | [4] 0.025 | filanesib -0.038 | zotarolimus 0.031 | idasanutlin 0.01 | alisertib 0.027 | [5] -0.034 | gefitinib 0.031 | [6] -0.072 | lapatinib 0.087 | pictilisib -0.092

GMPPA (UniProt Q96IJ6)
inactive: saracatinib 0.016 | sotrastaurin -0.004 | alvocidib -0.014 | Tubastatin A 0.01 | [1] -0.093 | defactinib -0.014 | rucaparib 0.056 | [2] -0.003 | encorafenib -0.031 | [3] -0.018 | [4] -0.007 | filanesib -0.059 | zotarolimus 0.013 | idasanutlin -0.016 | alisertib 0.002 | [5] 0.022 | gefitinib 0.005 | [6] 0.067 | lapatinib 0.013 | pictilisib 0.03

GMFB (UniProt P60983)
inactive: saracatinib 0.035 | sotrastaurin 0.003 | alvocidib -0.019 | Tubastatin A -0.039 | [1] -0.005 | defactinib -0.034 | rucaparib -0.045 | [2] -0.001 | encorafenib 0.013 | [3] -0.016 | [4] -0.001 | filanesib -0.038 | zotarolimus 0.045 | idasanutlin -0.043 | alisertib -0.08 | [5] -0.011 | gefitinib 0 | [6] 0.067 | lapatinib -0.003 | pictilisib -0.032

GNAQ (UniProt P50148)
inactive: saracatinib -0.057 | sotrastaurin -0.027 | alvocidib -0.026 | Tubastatin A 0.027 | [1] -0.04 | defactinib 0.018 | rucaparib 0.003 | [2] 0.034 | encorafenib -0.026 | [3] 0.016 | [4] -0.077 | filanesib 0.095 | zotarolimus 0.006 | idasanutlin -0.055 | alisertib -0.073 | [5] 0.084 | gefitinib 0.091 | [6] 0.086 | lapatinib -0.025 | pictilisib 0.201

GOSR1 (UniProt O95249)
inactive: saracatinib 0.016 | sotrastaurin -0.036 | alvocidib -0.019 | Tubastatin A -0.025 | [1] -0.026 | defactinib -0.038 | rucaparib -0.101 | [2] -0.037 | encorafenib 0.023 | [3] 0.094 | [4] -0.04 | filanesib -0.057 | zotarolimus -0.018 | idasanutlin 0.026 | alisertib -0.08 | [5] -0.162 | gefitinib 0.006 | [6] 0.058 | lapatinib -0.037 | pictilisib 0.033

GORASP2 isoform 3 (UniProt Q9H8Y8)
inactive: saracatinib -0.022 | sotrastaurin -0.162 | alvocidib -0.089 | Tubastatin A 0.005 | [1] 0.056 | defactinib -0.103 | rucaparib 0.065 | [2] 0.072 | encorafenib 0.108 | [3] -0.1 | [4] -0.035 | filanesib 0.093 | zotarolimus 0.001 | idasanutlin -0.112 | alisertib 0.041 | [5] 0.057 | gefitinib 0.007 | [6] -0.025 | lapatinib -0.089 | pictilisib 0.017

GPRIN1 (UniProt Q7Z2K8)
inactive: saracatinib 0 | sotrastaurin 0.003 | alvocidib 0.02 | Tubastatin A -0.009 | [1] -0.037 | defactinib -0.029 | rucaparib -0.01 | [2] 0.035 | encorafenib -0.018 | [3] 0.019 | [4] -0.03 | filanesib 0.07 | zotarolimus -0.053 | idasanutlin 0.025 | alisertib -0.02 | [5] 0.127 | gefitinib 0.074 | [6] 0.087 | lapatinib -0.013 | pictilisib 0.052

GLMN (UniProt Q92990)
inactive: saracatinib 0.032 | sotrastaurin 0.034 | alvocidib -0.011 | Tubastatin A -0.03 | [1] 0 | defactinib -0.024 | rucaparib 0.006 | [2] -0.002 | encorafenib 0.006 | [3] 0.06 | [4] -0.014 | filanesib -0.007 | zotarolimus -0.184 | idasanutlin -0.098 | alisertib -0.012 | [5] 0.001 | gefitinib 0.007 | [6] 0.021 | lapatinib 0.017 | pictilisib -0.038

2 entries drawn at random from those above, as already listed:
GPRIN1 (UniProt Q7Z2K8)
inactive: saracatinib 0 | sotrastaurin 0.003 | alvocidib 0.02 | Tubastatin A -0.009 | [1] -0.037 | defactinib -0.029 | rucaparib -0.01 | [2] 0.035 | encorafenib -0.018 | [3] 0.019 | [4] -0.03 | filanesib 0.07 | zotarolimus -0.053 | idasanutlin 0.025 | alisertib -0.02 | [5] 0.127 | gefitinib 0.074 | [6] 0.087 | lapatinib -0.013 | pictilisib 0.052

GNAQ (UniProt P50148)
inactive: saracatinib -0.057 | sotrastaurin -0.027 | alvocidib -0.026 | Tubastatin A 0.027 | [1] -0.04 | defactinib 0.018 | rucaparib 0.003 | [2] 0.034 | encorafenib -0.026 | [3] 0.016 | [4] -0.077 | filanesib 0.095 | zotarolimus 0.006 | idasanutlin -0.055 | alisertib -0.073 | [5] 0.084 | gefitinib 0.091 | [6] 0.086 | lapatinib -0.025 | pictilisib 0.201

(next part)

GPD2 (UniProt P43304)
inactive: saracatinib 0.041 | sotrastaurin 0.057 | alvocidib 0.002 | Tubastatin A -0.014 | [1] 0 | defactinib 0 | rucaparib 0.002 | [2] -0.06 | encorafenib -0.02 | [3] 0.043 | [4] -0.026 | filanesib 0.008 | zotarolimus -0.03 | idasanutlin -0.011 | alisertib -0.095 | [5] -0.004 | gefitinib 0.004 | [6] 0.04 | lapatinib -0.024 | pictilisib 0.008

GMPR2 isoform 2 (UniProt Q9P2T1)
inactive: saracatinib 0.057 | sotrastaurin 0.039 | alvocidib -0.035 | Tubastatin A -0.053 | [1] -0.045 | defactinib -0.026 | rucaparib -0.028 | [2] -0.05 | encorafenib -0.031 | [3] -0.019 | [4] 0.005 | filanesib -0.007 | zotarolimus -0.005 | idasanutlin -0.001 | alisertib -0.016 | [5] 0.004 | gefitinib 0.006 | [6] 0.058 | lapatinib -0.013 | pictilisib -0.007

GPS1 isoform 7 (UniProt Q13098)
inactive: saracatinib 0.031 | sotrastaurin 0.004 | alvocidib -0.055 | Tubastatin A -0.045 | [1] 0.007 | defactinib -0.008 | rucaparib -0.008 | [2] -0.032 | encorafenib -0.002 | [3] 0.052 | [4] 0.014 | filanesib -0.024 | zotarolimus 0.02 | idasanutlin -0.028 | alisertib -0.042 | [5] -0.031 | gefitinib 0.008 | [6] 0.003 | lapatinib 0.016 | pictilisib -0.01

GOLGA4 isoform 5 (UniProt Q13439)
inactive: saracatinib -0.147 | sotrastaurin -0.013 | alvocidib 0.114 | Tubastatin A 0.069 | [1] -0.052 | defactinib 0.051 | rucaparib 0.092 | [2] -0.014 | encorafenib 0.04 | [3] -0.012 | [4] -0.041 | filanesib 0.033 | zotarolimus 0.012 | idasanutlin 0.027 | alisertib 0.044 | [5] 0.15 | gefitinib 0.072 | [6] -0.094 | lapatinib -0.13 | pictilisib -0.041

GPN3 isoform 2 (UniProt Q9UHW5)
inactive: saracatinib 0.057 | sotrastaurin 0.025 | alvocidib 0.085 | Tubastatin A -0.024 | [1] -0.065 | defactinib 0.023 | rucaparib -0.055 | [2] 0.012 | encorafenib -0.029 | [3] -0.004 | [4] 0.034 | filanesib 0.061 | zotarolimus -0.048 | idasanutlin -0.062 | alisertib -0.023 | [5] -0.086 | gefitinib -0.053 | [6] 0.052 | lapatinib -0.027 | pictilisib 0.013

GMPS (UniProt P49915)
inactive: saracatinib -0.013 | sotrastaurin 0.015 | alvocidib -0.079 | Tubastatin A -0.009 | [1] -0.004 | defactinib -0.006 | rucaparib -0.028 | [2] 0.026 | encorafenib 0.019 | [3] 0.002 | [4] 0.024 | filanesib -0.136 | zotarolimus 0.027 | idasanutlin -0.095 | alisertib -0.055 | [5] -0.032 | gefitinib 0.017 | [6] 0.021 | lapatinib 0.013 | pictilisib 0.003
